From US20230265211A1 (published 2023) come the findings set out here.

The target of test [1] is T1, recombinant form of the PS SHBG-like domain alone (rSHBG) (human) (UniProt P07225).
T1 sequence (looked up): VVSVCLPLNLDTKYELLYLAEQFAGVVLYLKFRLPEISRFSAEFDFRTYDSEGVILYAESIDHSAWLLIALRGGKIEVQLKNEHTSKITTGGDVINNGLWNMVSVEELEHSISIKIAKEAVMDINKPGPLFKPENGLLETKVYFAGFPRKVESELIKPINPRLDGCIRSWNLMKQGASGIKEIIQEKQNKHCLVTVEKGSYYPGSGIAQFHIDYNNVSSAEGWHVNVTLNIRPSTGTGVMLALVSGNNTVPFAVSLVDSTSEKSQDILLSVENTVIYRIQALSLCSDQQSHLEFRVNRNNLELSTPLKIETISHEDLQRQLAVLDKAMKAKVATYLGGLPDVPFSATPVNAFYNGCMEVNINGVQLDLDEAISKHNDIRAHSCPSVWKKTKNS
As to the kind of experiment: direct ELISA, 0.5 nM PS003biv on immobilized rSHBG, anti-His6 detection. (In general: An ELISA detects its analyte on a solid surface through an enzyme-linked reagent.)

The target of test [2] is T1, recombinant form of the PS SHBG-like domain alone (rSHBG) (human). As to the kind of experiment: direct ELISA, 0.5 nM PS003biv on immobilized rSHBG (text after legend of FIG. 7).
For test [3] the target is unchanged. As to the kind of experiment: direct ELISA on immobilized rhSHBG (legend of FIG. 4).

These are yes or no findings as the source states them, for the method shown. Some entries that bind do so weakly or less than the wild type.

B1: PS003biv (VHH)
chain: QVQLQESGGGLVQAGGSLRLSCAASGRTFSSYAMGWVRQAPGKEREFVAAISYNGGRTNYADSVKGRFTISRDNAKNTGYLQMNSLKPEDTAVYYCAANPRMWGSVDFRSWGQGTQVTVSSGGGSGGGSGGGSGGGSQVQLQESGGGLVQAGGSLRLSCAASGRTFSSYAMGWVRQAPGKEREFVAAISYNGGRTNYADSVKGRFTISRDNAKNTGYLQMNSLKPEDTAVYYCAANPRMWGSVDFRSWGQGTQVTVSS
notes: also called bivalent PS003; not shown: N-terminal His6-tag from the pET28 format; C-terminal haemagglutinin (HA)-tag
For the molecule B1, the binding result in test [1] and in test [2] was “binds” each time.

B2: PS003 (VHH)
VHH: QVQLQESGGGLVQAGGSLRLSCAASGRTFSSYAMGWVRQAPGKEREFVAAISYNGGRTNYADSVKGRFTISRDNAKNTGYLQMNSLKPEDTAVYYCAANPRMWGSVDFRSWGQGTQVTVSS
notes: Llama VHH selected by phage display on rhPS; Purified form expressed from pET28 in E. coli with N-terminal His6-tag and C-terminal HA-tag; also called PS003 nanobody; monovalent PS003; not shown: N-terminal His6-tag from the pET28 format; C-terminal haemagglutinin (HA)-tag
B2: the binding entry in test [3] is “binds”.
